Where a name gives a salt, the structure may show the parent alone. This is one part of the list. Many values rest on one well or one pass, so single values are uncertain.
System: Echinococcus multilocularis metacestodes
Experiment: vesicle damage (PGI release) relative to positive control DB1127 at 20 µM, DMSO subtracted; higher = more parasite damage
Settings: treatment time 5 days

Q: How did the vesicle damage turn out when `CN(C)CCCN1c2ccccc2Sc2ccc(Cl)cc21` [Chlorpromazine hcl] was run?
A: The vesicle damage was 15.7%.

Q: With `CCNC(=O)CCC/C=C\C[C@@H]1[C@@H](/C=C/[C@@H](O)CCc2ccccc2)[C@H](O)C[C@@H]1O` [Bimatoprost] as the molecule, how does the vesicle damage read?
A: The vesicle damage was -1.73%.

Q: With `COC(=O)[C@H](c1ccccc1Cl)N1CCc2sccc2C1` [Clopidogrel bisulfate] as the molecule, how does the vesicle damage read?
A: The vesicle damage was -7.77%.

Q: With `CC(c1cc2ccccc2s1)N(O)C(N)=O` (centres undefined) [Zileuton] as the molecule, how does the vesicle damage read?
A: Its vesicle damage is -2.85%.

Q: Which vesicle damage does the source give for `CC(C)(C#N)c1cc(Cn2cncn2)cc(C(C)(C)C#N)c1` [Anastrozole] here?
A: The vesicle damage was -0.238%.

Q: `Cc1nc2n(c(=O)c1CCN1CCC(c3noc4cc(F)ccc34)CC1)CCCC2` [Risperidone] was tested. Which vesicle damage did it give?
A: The vesicle damage was -4.58%.

Q: `OCCN(CCO)c1nc(N2CCCCC2)c2nc(N(CCO)CCO)nc(N3CCCCC3)c2n1` [Dipyridamole] was tested. Which vesicle damage did it give?
A: The vesicle damage was -10.2%.

Q: Which vesicle damage does the source give for `Nc1nc(F)nc2c1ncn2[C@@H]1O[C@H](COP(=O)(O)O)[C@@H](O)[C@@H]1O` [Fludarabine Phosphate] here?
A: The vesicle damage was 2.09%.

Q: For `C[C@@H]1C[C@H]2[C@@H]3CCC4=CC(=O)C=C[C@]4(C)[C@@]3(F)[C@@H](O)C[C@]2(C)[C@@]1(O)C(=O)CO` [Dexamethasone], which vesicle damage is on record?
A: The vesicle damage was 2.94%.

Q: Which vesicle damage does the source give for `Cc1cc2nc3c(=O)[nH]c(=O)nc-3n(C[C@H](O)[C@H](O)[C@H](O)CO)c2cc1C` [Riboflavin] here?
A: Its vesicle damage is -10.9%.

Q: With `COC(=O)[C@H]1[C@H]2C[C@@H]3c4[nH]c5cc(OC)ccc5c4CCN3C[C@H]2C[C@@H](OC(=O)c2cc(OC)c(OC)c(OC)c2)[C@@H]1OC` [Reserpine] as the molecule, how does the vesicle damage read?
A: The vesicle damage was 0.83%.

Q: For `CC(C[N+](C)(C)C)OC(N)=O` (centres undefined) [Bethanechol chloride], which vesicle damage is on record?
A: The vesicle damage was 4.27%.

Q: `COc1cc2nc(N3CCN(C(=O)C4COc5ccccc5O4)CC3)nc(N)c2cc1OC` (centres undefined) [Doxazosin mesylate] was tested. Which vesicle damage did it give?
A: Its vesicle damage is 7.9%.

Q: With `O=c1oc2cc(O)ccc2s1` [Tioxolone] as the molecule, how does the vesicle damage read?
A: The vesicle damage was -0.785%.

Q: How did the vesicle damage turn out when `CCN(CC)CC#CCOC(=O)C(O)(c1ccccc1)C1CCCCC1` (centres undefined) [Oxybutynin] was run?
A: The vesicle damage was -12.9%.

Q: For `Nc1[nH]cnc2ncnc1-2` [Adenine], which vesicle damage is on record?
A: The vesicle damage was 1.74%.

Q: Which vesicle damage does the source give for `COc1c(N2C[C@@H]3CCCN[C@@H]3C2)c(F)cc2c(=O)c(C(=O)O)cn(C3CC3)c12` [Moxifloxacin] here?
A: Its vesicle damage is 1.58%.

Q: `C[C@@H](c1ncncc1F)[C@](O)(Cn1cncn1)c1ccc(F)cc1F` [Voriconazole] was tested. Which vesicle damage did it give?
A: The vesicle damage was -2.75%.

Q: How did the vesicle damage turn out when `CCOC(=O)N1CCC(=C2c3ccc(Cl)cc3CCc3cccnc32)CC1` [Loratadine] was run?
A: Its vesicle damage is -2.06%.

Q: For `CN(C)CCc1c[nH]c2ccc(C[C@H]3COC(=O)N3)cc12` [Zolmitriptan], which vesicle damage is on record?
A: Its vesicle damage is 1.11%.

Q: How did the vesicle damage turn out when `N=C(N)NC(=N)N1CCOCC1` [Moroxydine hydrochloride] was run?
A: The vesicle damage was -0.115%.

Q: How did the vesicle damage turn out when `O=C(O)COCCN1CCN(C(c2ccccc2)c2ccc(Cl)cc2)CC1` (centres undefined) [Cetirizine di hcl] was run?
A: The vesicle damage was -0.893%.

Q: With `COc1nc(N)nc2c1ncn2[C@@H]1O[C@H](CO)[C@@H](O)[C@@H]1O` [Nelarabine] as the molecule, how does the vesicle damage read?
A: The vesicle damage was -0.295%.

Q: Which vesicle damage does the source give for `O=C(O)CSCC(=O)NC1CCSC1=O` (centres undefined) [Erdosteine] here?
A: The vesicle damage was 1.96%.

Q: With `NNc1nncc2ccccc12` [Hydralazine hydrochloride] as the molecule, how does the vesicle damage read?
A: Its vesicle damage is 3.11%.

Q: How did the vesicle damage turn out when `CO[C@H]1/C=C/O[C@@]2(C)Oc3c(C)c(O)c4c(O)c(c5c(nc6cc(C)ccn65)c4c3C2=O)NC(=O)/C(C)=C\C=C\[C@H](C)[C@H](O)[C@@H](C)[C@@H](O)[C@@H](C)[C@H](OC(C)=O)[C@@H]1C` [Rifaximin] was run?
A: The vesicle damage was 2.72%.

Q: `C=CC1=C(C(=O)O)N2C(=O)[C@@H](NC(=O)/C(=N\O)c3csc(N)n3)[C@H]2SC1` [Cefdinir] was tested. Which vesicle damage did it give?
A: The vesicle damage was -1.6%.

Q: Which vesicle damage does the source give for `Clc1ccc(COC(Cn2ccnc2)c2ccc(Cl)cc2Cl)c(Cl)c1` (centres undefined) [Miconazole nitrate] here?
A: Its vesicle damage is 0.662%.

Q: How did the vesicle damage turn out when `Nc1nc(=O)n([C@@H]2CS[C@H](CO)O2)cc1F` [Emtricitabine] was run?
A: Its vesicle damage is -3.96%.

Q: Which vesicle damage does the source give for `C=CC[N+]1([C@H]2C[C@H]3[C@@H]4CC[C@H]5C[C@H](O)[C@@H](N6CCOCC6)C[C@]5(C)[C@H]4CC[C@]3(C)[C@H]2OC(C)=O)CCCC1` [Rocuronium bromide] here?
A: The vesicle damage was -1.71%.

Q: For `O=C1N=C(O)NC1(c1ccccc1)c1ccccc1` [Phenytoin sodium], which vesicle damage is on record?
A: Its vesicle damage is 4.93%.

Q: Which vesicle damage does the source give for `C[C@@H](O)[C@H]1C(=O)N2C(C(=O)O)=C(S[C@@H]3CN[C@H](CNS(N)(=O)=O)C3)[C@H](C)[C@H]12` [Doripenem Hydrate] here?
A: The vesicle damage was -2.49%.

Q: For `CNC(=O)c1cc(Oc2ccc(NC(=O)Nc3ccc(Cl)c(C(F)(F)F)c3)cc2)ccn1` [Sorafenib Tosylate], which vesicle damage is on record?
A: The vesicle damage was 139%.

Q: How did the vesicle damage turn out when `C[C@@H](O)[C@H]1C(=O)N2C(C(=O)[O-])=C(SC3Cn4cnc[n+]4C3)[C@H](C)[C@H]12` (some centres undefined) [Biapenem] was run?
A: Its vesicle damage is 0.399%.

Q: With `Cn1nnc2c(C(N)=O)ncn2c1=O` [Methazolastone] as the molecule, how does the vesicle damage read?
A: Its vesicle damage is -1.73%.

Q: How did the vesicle damage turn out when `COc1ccccc1OCC(O)CO` (centres undefined) [Guaifenesin] was run?
A: The vesicle damage was -7.65%.

Q: How did the vesicle damage turn out when `NCCCC(O)(P(=O)(O)O)P(=O)(O)O` [Alendronate sodium] was run?
A: The vesicle damage was 0.651%.

Q: With `CC(C)(C)C(=O)OCOP(=O)(COCCn1cnc2c(N)ncnc21)OCOC(=O)C(C)(C)C` [Adefovir dipivoxil] as the molecule, how does the vesicle damage read?
A: The vesicle damage was 3.35%.

Q: Which vesicle damage does the source give for `Cc1ccc(NC(=O)c2ccc(CN3CCN(C)CC3)cc2)cc1Nc1nccc(-c2cccnc2)n1` [Imatinib] here?
A: Its vesicle damage is 13%.

Source: the supplement of paper PMC4256282, “Profound Activity of the Anti-cancer Drug Bortezomib against Echinococcus multilocularis Metacestodes Identifies the Proteasome as a Novel Drug Target for Cestodes” (PLoS Neglected Tropical Diseases, 2014)
